# Earlier results, collected in patent US5419898A, “Antiallergic composition for ophthalmic or nasal use” (priority 1992, dated 1995).
# System: eyes and nasal mucosae
# Conditions: high concentrations where no insoluble matter is deposited; cited from earlier work
compound,measurement,value
"O=C(O)COCCN1CCN(C(c2ccccc2)c2ccc(Cl)cc2)CC1 (stereo not shown) [Cetirizine, [2-[4-[(4-chlorophenyl)phenylmethyl]-1-piperazinyl-]ethoxy]acetic acid]",irritating properties in ophthalmic or nasal use,strong irritating properties
